Experimental data as given in the supplement of paper PMC11732987, “Enantioselective OTUD7B fragment discovery through chemoproteomics screening and high-throughput optimisation” (Communications Chemistry, 2025).
The other results are listed elsewhere or left out. The data scatter; read single values as rough.

Sequences of proteins named here, by UniProt entry; tags and fusion partners are left off. A change or cut given only in a name is not applied to a line headed by its entry. Residues count along the entry.
UniProt P49790, 1129-1148: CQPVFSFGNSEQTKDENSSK
UniProt Q9H1P3, whole entry, looked up: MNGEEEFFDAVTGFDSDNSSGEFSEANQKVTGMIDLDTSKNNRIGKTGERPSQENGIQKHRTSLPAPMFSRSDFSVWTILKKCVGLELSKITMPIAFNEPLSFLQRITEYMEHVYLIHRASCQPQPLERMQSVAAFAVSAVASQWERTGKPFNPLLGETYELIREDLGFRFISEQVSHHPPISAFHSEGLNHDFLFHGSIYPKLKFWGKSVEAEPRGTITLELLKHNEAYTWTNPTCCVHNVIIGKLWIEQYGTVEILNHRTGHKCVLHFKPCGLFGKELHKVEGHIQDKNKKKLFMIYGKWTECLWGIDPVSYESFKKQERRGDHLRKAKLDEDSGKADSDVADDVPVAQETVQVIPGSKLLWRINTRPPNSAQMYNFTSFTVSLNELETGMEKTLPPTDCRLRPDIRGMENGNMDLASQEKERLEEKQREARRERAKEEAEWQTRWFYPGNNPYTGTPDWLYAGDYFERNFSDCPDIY
UniProt P52948: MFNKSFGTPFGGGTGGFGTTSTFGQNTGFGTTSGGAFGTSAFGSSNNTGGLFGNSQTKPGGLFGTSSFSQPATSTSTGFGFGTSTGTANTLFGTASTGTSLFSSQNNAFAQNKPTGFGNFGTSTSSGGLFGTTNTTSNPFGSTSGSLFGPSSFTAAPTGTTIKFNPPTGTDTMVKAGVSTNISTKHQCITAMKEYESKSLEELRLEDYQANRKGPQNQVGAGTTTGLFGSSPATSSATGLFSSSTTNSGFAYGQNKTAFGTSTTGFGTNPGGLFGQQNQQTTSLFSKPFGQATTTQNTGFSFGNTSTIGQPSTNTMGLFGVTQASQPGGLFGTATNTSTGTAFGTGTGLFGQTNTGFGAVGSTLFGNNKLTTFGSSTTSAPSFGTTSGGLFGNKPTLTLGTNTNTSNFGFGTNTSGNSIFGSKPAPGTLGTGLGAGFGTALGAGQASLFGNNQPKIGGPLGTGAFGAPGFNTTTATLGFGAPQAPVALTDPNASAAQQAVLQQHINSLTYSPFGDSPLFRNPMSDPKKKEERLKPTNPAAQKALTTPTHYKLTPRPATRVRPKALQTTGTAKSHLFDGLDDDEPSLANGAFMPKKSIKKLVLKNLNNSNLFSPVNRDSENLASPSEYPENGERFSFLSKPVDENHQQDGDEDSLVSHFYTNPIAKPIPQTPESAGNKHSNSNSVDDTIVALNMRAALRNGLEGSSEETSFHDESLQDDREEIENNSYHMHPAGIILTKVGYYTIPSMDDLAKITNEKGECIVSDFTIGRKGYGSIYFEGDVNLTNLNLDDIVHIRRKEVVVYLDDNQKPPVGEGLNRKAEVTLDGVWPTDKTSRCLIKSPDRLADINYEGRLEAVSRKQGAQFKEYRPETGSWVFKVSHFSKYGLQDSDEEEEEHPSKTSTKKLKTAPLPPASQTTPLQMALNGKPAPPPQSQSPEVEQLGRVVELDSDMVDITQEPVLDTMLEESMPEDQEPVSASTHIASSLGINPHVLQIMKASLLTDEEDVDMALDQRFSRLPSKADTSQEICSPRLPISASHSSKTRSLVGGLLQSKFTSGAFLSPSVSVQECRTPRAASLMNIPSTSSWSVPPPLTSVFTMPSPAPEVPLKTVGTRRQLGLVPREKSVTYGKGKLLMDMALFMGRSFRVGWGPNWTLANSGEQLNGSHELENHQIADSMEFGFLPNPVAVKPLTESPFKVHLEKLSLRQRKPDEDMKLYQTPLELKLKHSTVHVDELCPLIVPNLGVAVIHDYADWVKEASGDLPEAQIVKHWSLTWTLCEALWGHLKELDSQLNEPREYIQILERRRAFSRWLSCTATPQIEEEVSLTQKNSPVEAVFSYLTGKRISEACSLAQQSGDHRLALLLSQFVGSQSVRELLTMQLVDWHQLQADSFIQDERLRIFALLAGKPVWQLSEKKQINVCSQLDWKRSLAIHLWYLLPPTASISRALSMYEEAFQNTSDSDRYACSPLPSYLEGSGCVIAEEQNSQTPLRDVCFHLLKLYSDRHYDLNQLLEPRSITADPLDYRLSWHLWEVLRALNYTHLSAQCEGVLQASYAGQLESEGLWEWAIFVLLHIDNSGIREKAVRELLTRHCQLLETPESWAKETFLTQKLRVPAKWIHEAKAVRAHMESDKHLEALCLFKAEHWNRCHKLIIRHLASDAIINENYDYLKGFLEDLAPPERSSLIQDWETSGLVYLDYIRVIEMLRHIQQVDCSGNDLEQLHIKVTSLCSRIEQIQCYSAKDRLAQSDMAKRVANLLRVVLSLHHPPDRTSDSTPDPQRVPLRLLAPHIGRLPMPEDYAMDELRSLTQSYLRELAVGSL
UniProt Q5W0B1: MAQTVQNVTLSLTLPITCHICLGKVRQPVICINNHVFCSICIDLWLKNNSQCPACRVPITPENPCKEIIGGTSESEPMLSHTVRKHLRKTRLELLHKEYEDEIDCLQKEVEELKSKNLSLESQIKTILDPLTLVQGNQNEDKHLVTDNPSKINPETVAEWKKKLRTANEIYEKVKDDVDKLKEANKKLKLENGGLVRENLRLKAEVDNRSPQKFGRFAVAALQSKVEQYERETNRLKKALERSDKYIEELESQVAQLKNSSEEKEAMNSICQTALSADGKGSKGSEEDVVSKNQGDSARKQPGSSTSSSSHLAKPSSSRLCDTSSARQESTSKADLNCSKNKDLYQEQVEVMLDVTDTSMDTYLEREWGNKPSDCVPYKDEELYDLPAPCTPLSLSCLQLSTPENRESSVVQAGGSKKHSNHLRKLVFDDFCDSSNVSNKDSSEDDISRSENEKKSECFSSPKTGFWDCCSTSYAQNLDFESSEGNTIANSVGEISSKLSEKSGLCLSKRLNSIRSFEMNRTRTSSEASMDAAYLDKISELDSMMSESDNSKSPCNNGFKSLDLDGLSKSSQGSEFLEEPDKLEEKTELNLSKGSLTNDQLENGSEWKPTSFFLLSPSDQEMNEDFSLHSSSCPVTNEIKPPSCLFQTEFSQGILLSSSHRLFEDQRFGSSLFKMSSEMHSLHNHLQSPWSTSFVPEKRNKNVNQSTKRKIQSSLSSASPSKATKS
UniProt Q7Z417: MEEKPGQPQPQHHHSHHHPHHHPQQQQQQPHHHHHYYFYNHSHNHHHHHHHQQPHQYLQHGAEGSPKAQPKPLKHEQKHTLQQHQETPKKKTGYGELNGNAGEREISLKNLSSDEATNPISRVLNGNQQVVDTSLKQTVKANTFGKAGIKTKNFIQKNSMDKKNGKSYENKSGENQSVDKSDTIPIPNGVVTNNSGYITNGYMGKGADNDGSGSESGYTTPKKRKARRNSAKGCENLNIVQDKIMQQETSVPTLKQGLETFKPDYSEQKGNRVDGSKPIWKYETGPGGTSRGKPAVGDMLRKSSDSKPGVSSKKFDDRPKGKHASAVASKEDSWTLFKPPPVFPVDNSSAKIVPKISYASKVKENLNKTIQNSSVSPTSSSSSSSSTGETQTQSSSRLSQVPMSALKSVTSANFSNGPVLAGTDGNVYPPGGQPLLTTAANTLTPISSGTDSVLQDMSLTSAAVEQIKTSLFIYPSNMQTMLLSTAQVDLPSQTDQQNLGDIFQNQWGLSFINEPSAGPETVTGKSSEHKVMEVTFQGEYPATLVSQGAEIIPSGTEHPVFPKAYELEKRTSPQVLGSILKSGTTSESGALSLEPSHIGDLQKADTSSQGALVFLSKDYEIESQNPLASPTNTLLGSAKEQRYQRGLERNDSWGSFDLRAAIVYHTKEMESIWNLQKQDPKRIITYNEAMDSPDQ
UniProt Q8NFH5: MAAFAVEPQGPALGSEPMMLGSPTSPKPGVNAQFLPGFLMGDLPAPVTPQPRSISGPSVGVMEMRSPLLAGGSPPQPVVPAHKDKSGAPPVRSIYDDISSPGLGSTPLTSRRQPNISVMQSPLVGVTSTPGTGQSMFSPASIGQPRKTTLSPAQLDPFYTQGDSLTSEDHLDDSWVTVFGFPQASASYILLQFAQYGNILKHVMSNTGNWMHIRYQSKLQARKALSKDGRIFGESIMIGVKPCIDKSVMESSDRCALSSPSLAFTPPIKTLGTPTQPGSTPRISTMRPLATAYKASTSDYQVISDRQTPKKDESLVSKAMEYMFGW
UniProt Q96RS6: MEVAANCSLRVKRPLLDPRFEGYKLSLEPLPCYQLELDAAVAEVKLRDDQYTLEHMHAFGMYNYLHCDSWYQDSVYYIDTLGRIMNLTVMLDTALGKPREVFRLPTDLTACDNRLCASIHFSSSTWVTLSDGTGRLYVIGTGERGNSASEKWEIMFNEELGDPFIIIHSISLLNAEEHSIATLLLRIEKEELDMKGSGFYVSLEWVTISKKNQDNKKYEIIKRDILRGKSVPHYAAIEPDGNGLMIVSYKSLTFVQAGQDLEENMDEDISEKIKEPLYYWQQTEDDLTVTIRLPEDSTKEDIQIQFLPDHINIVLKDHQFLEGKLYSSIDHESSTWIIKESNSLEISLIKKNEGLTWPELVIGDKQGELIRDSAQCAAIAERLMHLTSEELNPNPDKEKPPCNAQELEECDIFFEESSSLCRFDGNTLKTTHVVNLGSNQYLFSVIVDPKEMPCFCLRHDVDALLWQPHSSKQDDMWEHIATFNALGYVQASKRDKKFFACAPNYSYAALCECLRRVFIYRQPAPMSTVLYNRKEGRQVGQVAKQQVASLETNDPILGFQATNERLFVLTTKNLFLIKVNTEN
UniProt Q8WV74: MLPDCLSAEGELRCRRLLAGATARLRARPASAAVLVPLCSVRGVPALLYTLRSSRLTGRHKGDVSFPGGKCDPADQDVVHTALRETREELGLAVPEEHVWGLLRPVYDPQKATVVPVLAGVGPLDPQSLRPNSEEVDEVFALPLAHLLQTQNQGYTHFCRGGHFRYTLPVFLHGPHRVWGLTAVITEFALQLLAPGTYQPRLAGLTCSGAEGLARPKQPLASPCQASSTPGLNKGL
UniProt Q96FW1, whole entry, looked up: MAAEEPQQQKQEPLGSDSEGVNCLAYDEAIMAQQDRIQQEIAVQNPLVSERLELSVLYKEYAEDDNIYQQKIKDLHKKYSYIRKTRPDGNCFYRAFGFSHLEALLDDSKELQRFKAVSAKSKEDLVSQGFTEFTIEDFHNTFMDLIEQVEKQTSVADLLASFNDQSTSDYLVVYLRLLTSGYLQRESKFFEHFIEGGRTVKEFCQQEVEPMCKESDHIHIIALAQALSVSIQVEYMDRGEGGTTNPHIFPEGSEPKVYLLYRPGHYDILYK
UniProt P13056: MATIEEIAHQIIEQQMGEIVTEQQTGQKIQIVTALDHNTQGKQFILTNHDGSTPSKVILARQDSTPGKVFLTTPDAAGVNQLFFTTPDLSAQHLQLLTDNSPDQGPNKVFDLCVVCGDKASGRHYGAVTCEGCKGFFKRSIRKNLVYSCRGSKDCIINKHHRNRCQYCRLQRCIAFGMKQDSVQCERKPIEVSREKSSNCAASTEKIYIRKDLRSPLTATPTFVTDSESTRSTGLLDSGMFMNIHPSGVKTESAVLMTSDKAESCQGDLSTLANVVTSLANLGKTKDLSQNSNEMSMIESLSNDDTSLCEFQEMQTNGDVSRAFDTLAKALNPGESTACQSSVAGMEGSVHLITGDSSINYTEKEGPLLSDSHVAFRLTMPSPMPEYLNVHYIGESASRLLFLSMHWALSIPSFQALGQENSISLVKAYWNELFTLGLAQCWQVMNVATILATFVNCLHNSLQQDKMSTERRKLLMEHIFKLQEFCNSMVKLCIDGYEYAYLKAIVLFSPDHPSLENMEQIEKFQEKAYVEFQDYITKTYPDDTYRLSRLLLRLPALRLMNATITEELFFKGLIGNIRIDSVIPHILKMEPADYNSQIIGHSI
UniProt Q9BQG2: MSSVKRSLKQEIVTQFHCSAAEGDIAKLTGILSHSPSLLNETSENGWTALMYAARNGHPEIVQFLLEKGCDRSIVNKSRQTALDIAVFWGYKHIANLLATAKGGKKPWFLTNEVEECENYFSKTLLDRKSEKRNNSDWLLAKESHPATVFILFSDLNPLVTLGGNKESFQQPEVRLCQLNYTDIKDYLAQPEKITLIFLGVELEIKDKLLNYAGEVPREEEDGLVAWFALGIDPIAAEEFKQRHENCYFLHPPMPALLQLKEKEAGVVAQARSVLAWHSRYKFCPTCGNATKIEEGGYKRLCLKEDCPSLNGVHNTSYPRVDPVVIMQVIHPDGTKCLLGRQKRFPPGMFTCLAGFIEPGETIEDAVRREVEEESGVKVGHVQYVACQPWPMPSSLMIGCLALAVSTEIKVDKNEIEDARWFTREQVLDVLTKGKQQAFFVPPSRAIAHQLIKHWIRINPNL
UniProt P53384: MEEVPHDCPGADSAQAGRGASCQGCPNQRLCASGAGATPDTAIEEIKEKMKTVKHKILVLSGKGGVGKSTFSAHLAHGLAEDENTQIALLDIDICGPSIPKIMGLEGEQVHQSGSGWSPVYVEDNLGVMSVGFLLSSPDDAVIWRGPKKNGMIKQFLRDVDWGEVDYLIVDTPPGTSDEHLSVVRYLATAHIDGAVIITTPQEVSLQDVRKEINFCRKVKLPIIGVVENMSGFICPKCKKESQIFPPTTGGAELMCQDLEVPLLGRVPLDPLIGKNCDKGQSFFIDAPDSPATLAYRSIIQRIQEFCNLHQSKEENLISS

What was measured:
[1] = compound: ClCC(=O)N[C@@H]1CCCc2ccccc12; test: log2 mean competition ratio of IA-DTB cysteine labelling (DMSO/compound) (log2 ratio); higher = stronger cysteine engagement by compound; settings: treatment time: 4 h, cell line lysate: HEK293T
Procedure: (§1)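 IA-DTB competitive cysteine chemoproteomics in HEK293T RIPA lysate. Lysates were treated with compound 29 or 30 at 50 or 200 µM for 4 h, then IA-DTB (500 µM, 1 h), trypsin-digested, NeutrAvidin-enriched and analysed by diaPASEF. Competition ratio = intensity DMSO / intensity compound (n=4 treated, n=64 DMSO); binding: mean log2 CR ≥ 1 and p ≤ 0.05 plus QC filters. Target is the cysteine site.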

[2] = compound: ClCC(=O)N[C@H]1CCCc2ccccc12; test: as above; settings: treatment time: 4 h, cell line lysate: HEK293T
Procedure: as §1

Target | log2 mean competition ratio ([1]; 50 µM) | log2 mean competition ratio ([1]; 200 µM) | log2 mean competition ratio ([2]; 50 µM) | log2 mean competition ratio ([2]; 200 µM)
NPEPPS C339 (UniProt P55786) | 0.255 | 1.52 | -0.0898 | 0.234
NUP153 C1129 (UniProt P49790) | -0.0545 | 0.0408 | 0.212 | -0.118
OSBPL2 C122 (UniProt Q9H1P3) | 0.36 | -0.0699 | 0.0721 | 0.281
NUP98 C1727 (UniProt P52948) | -0.133 | -0.152 | 0.166 | -0.195
NSL1 C224 (UniProt Q96IY1) | 0.517 | -0.0518 | 0.315 | -0.0285
OBI1 C321 (UniProt Q5W0B1) | 0.0705 | 0.13 | 0.15 | 0.307
NSD1 C1185 (UniProt Q96L73) | -0.0293 | 0.165 | -0.0455 | 0.0766
NUFIP2 C234 (UniProt Q7Z417) | 0.0524 | -0.167 | -0.22 | -0.0131
ODF2 C118 (UniProt Q5BJF6) | -0.189 | 0.656 | -0.0745 | 0.426
NUP35 C255 (UniProt Q8NFH5) | 0.241 | 0.107 | -0.034 | 0.262
NUP133 C641 (UniProt Q8WUM0) | -0.0828 | 0.00197 | 0.261 | -0.081
OBI1 C105 (UniProt Q5W0B1) | 0.118 | 0.454 | -0.374 | -0.181
NSD1 C622 (UniProt Q96L73) | 0.0325 | 0.207 | -0.261 | 0.118
OTUB2 C51 (UniProt Q96DC9) | -0.0021 | 0.0509 | -0.171 | -0.0194
NUDCD1 C7 (UniProt Q96RS6) | 0.289 | 0.0814 | 0.281 | 0.163
NUDT8 C5 (UniProt Q8WV74) | 0.0739 | -0.344 | 0.164 | -0.16
OBI1 C555 (UniProt Q5W0B1) | 0.104 | -0.139 | -0.0317 | -0.0812
NUP98 C1735 (UniProt P52948) | 0.25 | -0.12 | -0.0375 | -0.0437
NUP98 C1711 (UniProt P52948) | 0.0227 | 0.398 | -0.654 | 0.187
OTUB1 C91 (UniProt Q96FW1) | 0.0757 | 0.109 | 0.268 | 0.0588
NR2C1 C200 (UniProt P13056) | -0.225 | -0.0702 | -0.171 | 0.156
NUDT12 C18 (UniProt Q9BQG2) | 0.0451 | 0.0746 | -0.271 | -0.146
NUBP1 C8 (UniProt P53384) | -0.366 | 0.289 | -0.315 | 0.263
NOSIP C8 (UniProt Q9Y314) | 0.329 | -0.182 | 0.24 | -0.189

Rewritten comma-delimited: entries from further up.
Target,log2 mean competition ratio ([1]; 50 µM),log2 mean competition ratio ([1]; 200 µM),log2 mean competition ratio ([2]; 50 µM),log2 mean competition ratio ([2]; 200 µM)
NSL1 C224 (UniProt Q96IY1),0.517,-0.0518,0.315,-0.0285
NUFIP2 C234 (UniProt Q7Z417),0.0524,-0.167,-0.22,-0.0131
